No constants are given. Whether binding was seen depends on the method and setting. Binding seen in cells or lysates may run through a third protein. Binding can be weak; no strength is given. Tags and fused reporters may be left off the sequences shown.
Biological target: T1, chick GDE2, FLAG-tagged (chick) (UniProt Q3KTM2)
T1 sequence: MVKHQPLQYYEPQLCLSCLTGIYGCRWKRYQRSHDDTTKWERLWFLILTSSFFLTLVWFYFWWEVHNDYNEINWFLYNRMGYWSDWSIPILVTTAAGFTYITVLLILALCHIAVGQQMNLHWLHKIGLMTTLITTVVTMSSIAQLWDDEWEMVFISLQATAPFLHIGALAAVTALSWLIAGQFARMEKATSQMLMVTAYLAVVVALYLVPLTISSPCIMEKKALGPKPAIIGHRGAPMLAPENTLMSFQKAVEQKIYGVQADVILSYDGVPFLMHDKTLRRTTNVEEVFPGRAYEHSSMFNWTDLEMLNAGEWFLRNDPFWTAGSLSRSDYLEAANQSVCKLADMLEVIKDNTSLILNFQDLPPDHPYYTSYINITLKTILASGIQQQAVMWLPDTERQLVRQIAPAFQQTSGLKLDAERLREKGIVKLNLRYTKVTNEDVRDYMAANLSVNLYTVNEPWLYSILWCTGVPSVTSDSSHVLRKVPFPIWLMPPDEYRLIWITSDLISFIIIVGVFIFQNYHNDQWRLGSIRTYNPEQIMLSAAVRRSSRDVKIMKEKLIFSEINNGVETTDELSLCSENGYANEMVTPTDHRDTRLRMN
Test: co-IP; extracts of transfected HEK293T cells; FLAG-tagged GDE2 and HA-tagged Prdx4 forms; anti-FLAG M2 Affinity gel or antibodies with GammaBind G sepharose; 100 mM maleimide included; eluted in non-reducing sample buffer

binding: binds
Substance: chick Prdx4, three HA tags on the N terminus (enzyme)

From publication PMC4432624, “Prdx4 is a compartment-specific H2O2 sensor that regulates neurogenesis by controlling surface expression of GDE2” (Nature Communications, 2015)
